Results as given in patent US20180119149.
The exact form of at least one protein or probe is not confirmed. For some of these results: No signal at the amounts used counts as a negative. For some of these results: At least one result comes from cells or an extract, where the contact may be indirect. For some of these results: The direction of at least one scale is not stated here. For some of these results: Tags and fusion partners may be left off the protein sequences shown.

Tests used:
Experiment in all cases: binding assay
[1] = target: HER2 (ErbB2) (Homo sapiens) (UniProt P04626); settings: purified recombinant protein, label: FAM, single-stranded DNA
[2] = target: HSA (human serum albumin) (Homo sapiens) (UniProt P02768); settings: HSA-coated beads control; purified native protein; label: FAM; single-stranded DNA
ErbB4 (HER4) = target: T1, ErbB4 (HER4) (UniProt Q15303); settings: HER2 signal more than 10-fold higher; 10 nM aptamer; purified recombinant protein; protein details: coupled to magnetic beads; label: FAM; single-stranded DNA
T1 sequence (looked up, limits assumed): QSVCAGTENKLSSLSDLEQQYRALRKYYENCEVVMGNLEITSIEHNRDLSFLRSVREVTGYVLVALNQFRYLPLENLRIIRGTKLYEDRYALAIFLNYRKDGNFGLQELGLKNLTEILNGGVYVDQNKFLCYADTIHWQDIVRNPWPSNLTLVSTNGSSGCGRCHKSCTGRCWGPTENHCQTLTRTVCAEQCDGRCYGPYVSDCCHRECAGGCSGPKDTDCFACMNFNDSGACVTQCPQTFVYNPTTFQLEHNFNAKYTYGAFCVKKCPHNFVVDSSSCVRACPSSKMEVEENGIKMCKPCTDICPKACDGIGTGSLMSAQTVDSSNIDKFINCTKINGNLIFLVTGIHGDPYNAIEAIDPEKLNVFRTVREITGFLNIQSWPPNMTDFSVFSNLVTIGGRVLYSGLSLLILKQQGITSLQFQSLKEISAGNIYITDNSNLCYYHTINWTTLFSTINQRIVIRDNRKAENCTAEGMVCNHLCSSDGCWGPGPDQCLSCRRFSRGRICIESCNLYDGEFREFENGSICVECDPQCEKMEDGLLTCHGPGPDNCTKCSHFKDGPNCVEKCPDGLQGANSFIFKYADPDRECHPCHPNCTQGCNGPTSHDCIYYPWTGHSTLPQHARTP

ErbB3 (HER3) = ErbB3 (HER3) (UniProt P21860); settings: HER2 signal more than 10-fold higher; 10 nM aptamer; purified recombinant protein; protein details: coupled to magnetic beads; label: FAM; single-stranded DNA
[3] = target: HER2 on cells (SK-BR3, MCF-7) (Homo sapiens) (UniProt P04626); settings: confocal imaging, 50 nM; co-localized with anti-HER2 antibody; no signal on HER2-negative MDA-MB-435 wt; protein on the cell surface; label: FAM; single-stranded DNA
EGFR = EGFR (UniProt P00533); settings: HER2 signal more than 10-fold higher; 10 nM aptamer; purified recombinant protein; protein details: coupled to magnetic beads; label: FAM; single-stranded DNA
[4] = range over all sequences, 10 nM, bead fluorescence

Sequence | binding result [1, 4] | other results
AACTGAGTCCATGCTACTAGCAGCCTGAGGTGGATACTCT [H50] | binds | –
TTGAGTCATTACCGTAAGTACATCAACTACTTAGTTAGTC [H26] | binds | –
AGTCAGGGTGAAGAACCCGTGTCACCGGTCATTTTCTAAT [H28] | binds | –
AACCTTAGTAGGTACTCATGACGTGGTCCAAGCCTTGTTT [H7] | binds | –
GAGGGGGGGCCGCTACTGAGCACTCAAAGACGCAATGCCC [H8] | binds | –
ACAATTGAGGCTATCAGTTCTGCTAGAAGTTGACTGGATC [H54] | binds | –
CCTTAGGCTAGGGCAATTTCAACTCGCTTGACGTCGAATA [H22] | binds | –
GGAGTTTTAAGCGTTTGTGGCGAGATAACCTGGTTGTGCA [H47] | binds | –
GATTGGCAGTTAGCGTTTTTCTGAGCATTCGAAGGTTATA [H17] | – | binding result ([1]; bead-based fluorescence): binds
GTGTGCAGCAACGAGACTCAGCGACTAGCCCGTACGCCTG [H9] | – | binding result ([1]; bead-based fluorescence): binds
GGCGCTTACACGCAGGTTGACTCAGACTAGACTCTACAGC [H12] | – | binding result [2]: no binding; binding signal (fraction of HER2 signal) (ErbB4 (HER4)): < 0.1; binding signal (fraction of HER2 signal) (ErbB3 (HER3)): < 0.1; binding result [3]: binds; binding signal (fraction of HER2 signal) (EGFR): < 0.1; Kd ([1]; bead-based fluorescence, with formaldehyde cross-linking, 37 C, HEPES, 5 mM MgCl2, 1 mM CaCl2): 6.4 nM; Kd ([1]; bead-based fluorescence, without formaldehyde): 8.2 nM
ACCATGAACAGCTGGCATTCCATGGATCTAACGCGGAATT [H31] | binds | –
TGTCAGCTAACGTGGGTTTGTTACCGGTGGCTTAGTTAGC [H30] | binds | –
CTACGCAACAATCATAGGTGATACCGGGCTGTTGTACAAT [H4] | binds | –
TCTCTACCTGATGTATAATTTACGTCACTAAGTCCCGCCG [H55] | binds | –
CATATGAACGTTTCTACAATTTTAACGAGACAGTTTTGCG [H53] | binds | –
AACCGTAGGTGAAACGGAAGTCCCGGTTGGGGATCAATAT [H6] | binds | –

Sequence | binding result [1, 4] | other results
GTAGGGATCGCTAGAAGGGTCAAAGTTAGGTCATGTAGGG [H5] | binds | –
ATTGGGTCTATGGGTTGAATCATTTCGGACGTTTTACGTA [H2] | – | binding result ([1]; bead-based fluorescence): binds
TAGTCTGATGCGATATACTCGGCGGTCGGGGGGGTAGGTT [H46] | binds | –
GCAAGACATAACGTATAATCATGGCGATACCCTGCTTCCG [H49] | binds | –
TGGGAAGTGTTACAATTCTGGTAGGGGTGTGGATTTAGGG [H33] | binds | –
CGACATGTGCTGCGTGTACGACTGTGTGCTCTATCTCGAG [H3] | binds | –
GAATCCTTCACTGGTGGGTTCTGTTTCGGCTTTTTAAAAT [H20] | – | binding result ([1]; bead-based fluorescence): binds
GTCGAGAGTATAATATTTCCGCTTAAACTAGTGTGTCGCC [H29] | – | binding result ([1]; bead-based fluorescence): binds
GGAGTTATCCATTCGCACATAACTGCATTCATCCGCTTAG [H35] | binds | –
CCCAGATGAGGAATGAGGGCCTCACGTAGGGTGTGCAGCC [H48] | binds | –
GGGCACGCATAGCAAGGCGTATATGAAGCGTCAGTTTTCC [H34] | binds | –
TGCCCCTAGGCGTGGCTGCAGCGTCTAATTGTGTTTATGA [H1] | – | binding result ([1]; bead-based fluorescence): binds
CATGCGGTACCGGTGAAACTAGAACGAATTTAAAGGCGAC [H21] | binds | –
GGGTATGATTTTGGACCCGAGTAGGCTATTTTAATTCAAA [H51] | binds | –
CAGAACTGTGACATGGCTTGGCCCATGACTTAAAGGAGTG [H52] | binds | –
TGGAGTGATTGCTCTAGTAGGGTTTCATGGGGCCCGATCC [H11] | binds | –
CAATTGGCGCGGGGATTCCGCACCCTCGAATGTTCAGGGC [H32] | – | binding result ([1]; bead-based fluorescence): binds
